By UniProt entry, the sequences of proteins in these tests, tags left out. Where a name states a change or a piece, a line headed by the entry shows the natural chain unless it says otherwise.
UniProt O15379: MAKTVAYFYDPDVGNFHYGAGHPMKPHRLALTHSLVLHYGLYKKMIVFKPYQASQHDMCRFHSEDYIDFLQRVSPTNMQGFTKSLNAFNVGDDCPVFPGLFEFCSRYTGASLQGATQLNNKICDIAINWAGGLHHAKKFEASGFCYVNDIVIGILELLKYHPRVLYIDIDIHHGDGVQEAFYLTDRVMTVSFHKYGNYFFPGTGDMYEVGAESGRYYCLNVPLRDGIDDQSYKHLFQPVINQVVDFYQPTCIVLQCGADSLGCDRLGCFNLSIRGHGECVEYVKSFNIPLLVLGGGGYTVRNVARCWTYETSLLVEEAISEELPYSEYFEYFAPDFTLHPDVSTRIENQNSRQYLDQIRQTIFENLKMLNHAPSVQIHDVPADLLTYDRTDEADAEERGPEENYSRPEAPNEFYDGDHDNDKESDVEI

The campaign covered roughly 1,400 compounds. Fewer than 10 were called active.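 How the source made its calls: active means fluorescence-lowering compounds whose fitted half-maximal concentration is at or below ten times the highest valid dose tested; inconclusive means flat curve at 30 to 70% inhibition, or poor fit; inactive means the rest.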 This is one part of the list.
What follows are compounds tested against Histone deacetylase 3 (Homo sapiens) (UniProt O15379) (assay: HDAC3 deacetylase inhibitors, dose response, counter-screen for JMJD2C/GASC1 demethylase inhibitor project, biochemical, fluorescence, cherry-picked samples (AID 485318;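 further: enzyme preincubated with compound before substrate and trypsin were added; 0% = neutral control wells and -100% = SAHA positive control wells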)). Details: recombinant HDAC3, fluorogenic peptide/trypsin coupled; at 12 µM (top of the series).
For `CCNc1oc(-c2cccc3ccccc23)nc1C#N`, the activity change, negative = inhibition was inactive: 0.274%. `COC(=O)[C@]1(C)N[C@H](CN(C)S(=O)(=O)c2ccc(F)cc2)[C@@H]2C(=O)N(C)C(=O)[C@@H]21` was tested, and the activity change, negative = inhibition was inactive: -0.842%. For `CCCCC(=O)NC(Nc1nc(C2CC2)cs1)(C(=O)OCC)C(F)(F)F` (configuration not stated), the activity change, negative = inhibition was inactive: 0.125%. With `N#Cc1cc(-c2ccccc2)nnc1Sc1ccccc1` the activity change, negative = inhibition was inactive: -0.00806%. `C#CC[N+]1(CC#Cc2ccc(C#CC[N+]3(CC#C)CCOCC3)cc2)CCOCC1` was tested, and the activity change, negative = inhibition was inactive: -0.0944%. In the case of `Cc1ccc(-n2c3nc(=O)[nH]c(=O)c-3cc3c(C)nn(-c4ccccc4)c32)c(C)c1`, the activity change, negative = inhibition is reported as inactive: -0.0691%. For `CC1=NN(c2ccc(C)cc2C)C(=O)C1C(c1ccccc1)C1C(=O)N(c2ccc(C)cc2C)N=C1C` (configuration not stated), the activity change, negative = inhibition was inactive: -0.318%. In the case of `O=C(NCCCn1ccnc1)c1cc2c(ccc3ccccc32)o1`, the activity change, negative = inhibition is reported as inactive: -0.124%. `CCOC(=O)CNC(=O)CNC(=O)c1ccc(OC)cc1` was tested, and the activity change, negative = inhibition was inactive: 0.486%. With `Cn1c(/N=C/c2cc(Cl)ccc2O)nc2ccccc21` the activity change, negative = inhibition was inactive: -0.0197%. In the case of `Cc1ccc(/C=N/NC(=O)c2ccc(C(=O)N/N=C/c3ccc(C)s3)o2)s1`, the activity change, negative = inhibition is reported as inactive: 0.57%. In the case of `Cc1cc(-c2n[nH]c(=S)o2)c(C)n1-c1ccccc1`, the activity change, negative = inhibition is reported as inactive: -0.98%. In the case of `O=C(COC(=O)c1cccs1)c1ccccc1`, the activity change, negative = inhibition is reported as inactive: -0.266%. For `Cc1nnc(N2C(=O)c3cccc4c([N+](=O)[O-])ccc(c34)C2=O)s1`, the activity change, negative = inhibition was inactive: 0.858%. `Cc1ccc(-n2nc3c(N4CCC(C(=O)N5CCCCCC5)CC4)nnc(C)c3c2C)cc1` was tested, and the activity change, negative = inhibition was inactive: 0.0499%. In the case of `CN(C)CCCNC1=CC(=O)OC12CCCCC2`, the activity change, negative = inhibition is reported as inactive: -0.144%. `CCOC(=O)CCC(=O)NCc1ccc2c(c1)cc(C)n2C` was tested, and the activity change, negative = inhibition was inactive: 0.447%. With `CCCSc1nc(-c2ccccc2)cc(C(F)(F)F)c1C#N` the activity change, negative = inhibition was inactive: 0.346%. With `O=c1oc2ccccc2c(O)c1C=NCc1ccccn1` the activity change, negative = inhibition was inactive: -0.859%. In the case of `Cn1c(=O)[nH]c(=O)c2c1nc(SCC(=O)O)n2CCc1ccccc1`, the activity change, negative = inhibition is reported as inactive: -0.805%. `Cc1ccc(C(Sc2ccccc2)C(Cn2cncn2)C(=O)c2ccccc2)cc1` (configuration not stated) was tested, and the activity change, negative = inhibition was inactive: 0.189%. `c1ccc2cc(CCO[C@H]3CCCCO3)ncc2c1` was tested, and the activity change, negative = inhibition was inactive: -0.0175%. In the case of `N#CC1=C(N)N2C(=C(C#N)C13CCCCC3)SC1CCCCC12O` (configuration not stated), the activity change, negative = inhibition is reported as inactive: 0.692%. In the case of `O=C(c1ccc2c(c1)OCO2)N1CCCN(C(=O)c2ccc3c(c2)OCO3)CC1`, the activity change, negative = inhibition is reported as inactive: 0.114%. `N#Cc1ccc(CSc2ncnc3c2cnn3Cc2ccccc2)cc1` was tested, and the activity change, negative = inhibition was inactive: -0.017%. With `CCOC(=O)[C@H]1[C@H]2COc3ccc(C)cc3[C@@H]2N2C(=O)c3ccc(Cl)cc3NC(=O)[C@@]12C` the activity change, negative = inhibition was inactive: 0.735%. For `C=CCN(CC=C)Cc1c(O)ccc2c1oc(=O)c1ccccc12`, the activity change, negative = inhibition was inactive: -0.106%. With `COc1ccc(S(=O)(=O)N2CC(O)CC2C(=O)OCc2nc3sc(C)c(C)c3c(=O)[nH]2)cc1` (configuration not stated) the activity change, negative = inhibition was inactive: 1.15%. `COC(=O)C1=C(C)OC(N)=C(C#N)C1c1cc2cccc(C)c2nc1Cl` (configuration not stated) was tested, and the activity change, negative = inhibition was inactive: 0.775%. For `NC(=O)CC(NC(=S)NCc1ccccc1)C(=O)O` (configuration not stated), the activity change, negative = inhibition was inactive: 0.343%. `CS(=O)(=O)c1ccccc1-c1nnc(NC(=O)c2ccc3ncsc3c2)o1` was tested, and the activity change, negative = inhibition was inactive: -1.47%. `C=C(C)COc1ccc(-c2n[nH]c(C)c2-c2ccccc2)c(O)c1` was tested, and the activity change, negative = inhibition was inactive: 0.251%. With `c1coc(CSCc2cn3cccnc3n2)c1` the activity change, negative = inhibition was inactive: -0.595%. `CCCNC1=C(N(C(C)=O)c2cccc(F)c2)C(=O)c2ccccc2C1=O` was tested, and the activity change, negative = inhibition was inactive: 0.529%. For `Cc1ccc(CCNC(=O)C23C[C@H]4C[C@@H](C2)CC(n2nnc(C)n2)(C4)C3)cc1`, the activity change, negative = inhibition was inactive: 0.128%. With `Cc1ccccc1Cn1c2ccccc2c2cn[nH]c(=O)c21` the activity change, negative = inhibition was inactive: -0.000171%. For `CN(C(=O)c1ccc(NC(=O)Cc2ccc(NC(=O)C3CCN(C(=O)C4CC4)CC3)cc2)cc1)C1CC1`, the activity change, negative = inhibition was inactive: -0.494%. For `C#CCOCCOCCOCCNc1nc(N2CCN(C(=O)[C@H](CCC(=O)O)n3cc(CN)nn3)CC2)nc(N2CCN(C(=O)[C@H](CCCN=C(N)N)n3cc(C(N)[C@@H](C)CC)nn3)CC2)n1` (some centres not stated), the activity change, negative = inhibition was inactive: -0.509%. In the case of `Cc1cc(N2C(=O)C(=O)/C(=C(/O)c3ccc(F)cc3)C2c2cccc(Br)c2)no1` (configuration not stated), the activity change, negative = inhibition is reported as inactive: 0.0199%. For `Cc1cccc(CN2CCC(Oc3ccc(C(=O)N4CCCC4)cc3)CC2)n1`, the activity change, negative = inhibition was inactive: -0.0921%. `Cc1nc2ccccn2c1C(=O)NCCCN1CCOCC1` was tested, and the activity change, negative = inhibition was inactive: 1.24%. `O=C1CC2(CCN(C(=O)c3ccccc3Cl)CC2)Oc2ccccc21` was tested, and the activity change, negative = inhibition was inactive: 0.607%.
